Results reported in article PMC6053364.
These are yes or no findings as the source states them, for the method shown. Binding seen in cells or lysates may run through a third protein. Here binding means that the protein was enriched with, or labelled near, the bait; the list need not be complete.

Sequences of proteins named here, by UniProt entry; tags and fusion partners are left off.
UniProt Q09028: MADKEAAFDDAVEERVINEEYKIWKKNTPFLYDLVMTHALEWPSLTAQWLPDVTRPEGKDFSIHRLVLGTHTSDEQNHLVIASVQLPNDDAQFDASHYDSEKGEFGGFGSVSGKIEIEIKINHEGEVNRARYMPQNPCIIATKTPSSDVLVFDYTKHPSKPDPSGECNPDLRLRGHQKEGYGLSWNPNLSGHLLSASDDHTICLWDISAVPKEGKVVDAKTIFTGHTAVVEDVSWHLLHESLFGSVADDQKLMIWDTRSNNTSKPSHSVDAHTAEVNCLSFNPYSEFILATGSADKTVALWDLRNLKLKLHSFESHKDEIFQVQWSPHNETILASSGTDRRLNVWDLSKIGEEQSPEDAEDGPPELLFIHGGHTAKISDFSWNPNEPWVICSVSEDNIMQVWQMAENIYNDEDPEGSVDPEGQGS

Biological target: T1, ARMC12, stably overexpressed in SH-SY5Y and SK-N-SH cells (human) (UniProt Q5T9G4)
T1 sequence: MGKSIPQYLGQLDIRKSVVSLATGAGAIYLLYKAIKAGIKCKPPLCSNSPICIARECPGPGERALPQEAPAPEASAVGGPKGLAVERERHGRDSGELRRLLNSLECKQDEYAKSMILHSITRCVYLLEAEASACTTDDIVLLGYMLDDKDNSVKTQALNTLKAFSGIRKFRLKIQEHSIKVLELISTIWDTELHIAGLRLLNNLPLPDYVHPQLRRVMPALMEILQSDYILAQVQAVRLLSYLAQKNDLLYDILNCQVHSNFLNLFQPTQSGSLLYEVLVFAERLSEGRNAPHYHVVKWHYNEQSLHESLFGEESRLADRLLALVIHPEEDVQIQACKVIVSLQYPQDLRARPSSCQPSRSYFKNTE
Test: affinity purification with mass spectrometry; ARMC12 antibody immunoprecipitation from extracts of SH-SY5Y and SK-N-SH cells stably transfected with empty vector (mock) or ARMC12; Coomassie staining, trypsin digestion, LC-MS/MS

binding: binds
Substance: retinoblastoma binding protein 4 (RBBP4), endogenous (from UniProt Q09028 1-425)
